According to PMC10163027, “Coordinated regulation of vegetative phase change by brassinosteroids and the age pathway in Arabidopsis” (Nature Communications, 2023):
Read-outs that look alike come from different tables or passages of the source. These are yes or no findings as the source states them, for the method shown. For some of these results: Binding seen in cells or lysates may run through a third protein. Some results given as binding are weak or reduced against the parent protein; the word gives no strength. Where a sequence is shown, tags or fusion partners need not be part of it.

Sequences of proteins named here, by UniProt entry; tags and fusion partners are left off.
UniProt Q9SK03: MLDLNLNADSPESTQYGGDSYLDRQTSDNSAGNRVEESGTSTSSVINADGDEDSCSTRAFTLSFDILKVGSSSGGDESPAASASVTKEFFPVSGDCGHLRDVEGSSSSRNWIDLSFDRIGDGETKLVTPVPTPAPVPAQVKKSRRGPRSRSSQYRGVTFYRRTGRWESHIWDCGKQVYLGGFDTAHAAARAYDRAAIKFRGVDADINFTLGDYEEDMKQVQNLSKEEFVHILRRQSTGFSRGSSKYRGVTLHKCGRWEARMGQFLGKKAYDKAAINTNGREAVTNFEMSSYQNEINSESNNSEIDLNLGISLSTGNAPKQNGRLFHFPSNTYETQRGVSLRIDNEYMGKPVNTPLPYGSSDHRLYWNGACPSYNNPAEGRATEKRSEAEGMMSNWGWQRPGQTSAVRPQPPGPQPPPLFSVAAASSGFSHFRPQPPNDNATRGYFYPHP

Tests used:
[1] = biological target: T1, BRASSINOSTEROID …2 (BIN2), yeast two-hybrid fusion (Arabidopsis) (UniProt Q39011); experiment: two-hybrid; GAL4 system, yeast strain AH109; co-transformants from DDO (SD/-Leu/-Trp) tested for growth on QDO (SD/-Leu/-Trp/-Ade/-His)
T1 sequence: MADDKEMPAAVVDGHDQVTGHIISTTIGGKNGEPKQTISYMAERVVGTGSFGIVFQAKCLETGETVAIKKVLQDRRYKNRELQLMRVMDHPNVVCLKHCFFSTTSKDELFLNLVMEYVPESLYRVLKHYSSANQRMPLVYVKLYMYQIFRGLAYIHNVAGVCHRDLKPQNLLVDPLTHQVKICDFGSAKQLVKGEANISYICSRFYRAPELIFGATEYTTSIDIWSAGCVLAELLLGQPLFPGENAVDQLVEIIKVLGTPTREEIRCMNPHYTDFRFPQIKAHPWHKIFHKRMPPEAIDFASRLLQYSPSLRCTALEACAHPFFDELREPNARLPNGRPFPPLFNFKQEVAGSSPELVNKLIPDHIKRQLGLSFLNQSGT

BIN2-cYFP (Arabidopsis) [2] = biological target: T2, BIN2-cYFP (Arabidopsis) (UniProt Q39011); experiment: split reporter; BiFC with nYFP and cYFP fusions co-transformed into WT Arabidopsis protoplasts (PEG-mediated), 12-16 h, confocal microscopy; YFP signal in nuclei
T2 sequence: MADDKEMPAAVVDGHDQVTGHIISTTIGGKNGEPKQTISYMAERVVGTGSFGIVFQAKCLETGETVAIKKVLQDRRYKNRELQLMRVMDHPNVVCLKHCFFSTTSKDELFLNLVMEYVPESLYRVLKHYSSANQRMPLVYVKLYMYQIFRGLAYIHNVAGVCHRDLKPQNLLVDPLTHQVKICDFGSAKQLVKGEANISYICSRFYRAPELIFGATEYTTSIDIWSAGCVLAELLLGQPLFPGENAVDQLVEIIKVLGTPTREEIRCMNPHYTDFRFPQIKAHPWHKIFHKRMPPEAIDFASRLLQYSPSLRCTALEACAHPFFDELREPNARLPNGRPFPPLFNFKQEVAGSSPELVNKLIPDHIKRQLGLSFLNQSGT

[3] = biological target: T1, BRASSINOSTEROID …2 (BIN2), yeast two-hybrid fusion (Arabidopsis); experiment: two-hybrid; GAL4 system, yeast strain AH109; co-transformants from DDO (SD/-Leu/-Trp) tested for growth on QDO (SD/-Leu/-Trp/-Ade/-His); remark: listed apart in the source
BIN2-cYFP (Arabidopsis) [4] = biological target: T2, BIN2-cYFP (Arabidopsis); experiment: split reporter; BiFC with nYFP and cYFP fusions co-transformed into WT Arabidopsis protoplasts (PEG-mediated), 12-16 h, confocal microscopy; YFP signal in nuclei; remark: listed apart in the source

## TARGET OF EAT1 (TOE1), yeast two-hybrid fusion (from UniProt Q9SK03 1-449)
[1]
  binding: binds

## TOE1-nYFP (from UniProt Q9SK03 1-449)
BIN2-cYFP (Arabidopsis) [2]
  binding: binds

B1: SQUAMOSA PROMOTER BINDING PROTEIN-LIKE 9 (SPL9), yeast two-hybrid fusion (protein, UniProt Q700W2 1-375)
chain: MEMGSNSGPGHGPGQAESGGSSTESSSFSGGLMFGQKIYFEDGGGGSGSSSSGGRSNRRVRGGGSGQSGQIPRCQVEGCGMDLTNAKGYYSRHRVCGVHSKTPKVTVAGIEQRFCQQCSRFHQLPEFDLEKRSCRRRLAGHNERRRKPQPASLSVLASRYGRIAPSLYENGDAGMNGSFLGNQEIGWPSSRTLDTRVMRRPVSSPSWQINPMNVFSQGSVGGGGTSFSSPEIMDTKLESYKGIGDSNCALSLLSNPHQPHDNNNNNNNNNNNNNNTWRASSGFGPMTVTMAQPPPAPSQHQYLNPPWVFKDNDNDMSPVLNLGRYTEPDNCQISSGTAMGEFELSDHHHQSRRQYMEDENTRAYDSSSHHTNWSL
[3]
  binding: binds

B2: SPL9-nYFP (protein, UniProt Q700W2 1-375)
chain: MEMGSNSGPGHGPGQAESGGSSTESSSFSGGLMFGQKIYFEDGGGGSGSSSSGGRSNRRVRGGGSGQSGQIPRCQVEGCGMDLTNAKGYYSRHRVCGVHSKTPKVTVAGIEQRFCQQCSRFHQLPEFDLEKRSCRRRLAGHNERRRKPQPASLSVLASRYGRIAPSLYENGDAGMNGSFLGNQEIGWPSSRTLDTRVMRRPVSSPSWQINPMNVFSQGSVGGGGTSFSSPEIMDTKLESYKGIGDSNCALSLLSNPHQPHDNNNNNNNNNNNNNNTWRASSGFGPMTVTMAQPPPAPSQHQYLNPPWVFKDNDNDMSPVLNLGRYTEPDNCQISSGTAMGEFELSDHHHQSRRQYMEDENTRAYDSSSHHTNWSL
BIN2-cYFP (Arabidopsis) [4]
  binding: binds
